# In PubChem BioAssay AID2685 (National Center for Advancing Translational Sciences (NCATS), 2010):
# Among all 320,000 compounds or so, about 2,100 (0.66%) were called active. This list was built around the results that the source calls inconclusive (neither active nor inactive); the mix of calls is not that of the screen. Calls follow the shape of the dose curve; as a rule, active = well fitted inhibition curve with a large enough effect in the signal ratio, with a control signal flat (not every such curve was filed as active); inconclusive = small, poorly fitted or top-dose-only effect, or effect the other way, or a change in a side signal; inactive = flat fitted curve, though single readings scatter; the % refers to the signal ratio. Where the call is inconclusive, the potency comes from a doubtful curve fit.
# Experiment: qHTS Assay for Lipid Storage Modulators in Drosophila S3 Cells
# Conditions: BODIPY lipid droplet fluorescence, 18-24 h, cells fed with added oleic acid; lipid storage change, negative = inhibition: at 46.1 µM (top of the series) unless noted
# Outline: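 Drosophila S3 cells got compounds at several concentrations plus oleic acid (400 uM solution). Laser-scanning cytometry with 488 nm excitation read lipid droplets at 500-530 nm and cells at 575-640 nm. Percent activity was relative to 20 uM Triacsin C.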
# % is scaled to controls: 0 for no effect and ±100 for the full control effect; potency is read from the fitted curve at half-maximal effect.
Structure (SMILES),"lipid storage change, negative = inhibition",Potency
CN(c1ccccc1C(=O)Nc1cccc(Br)c1)S(=O)(=O)c1ccccc1,inconclusive: -30.1%,–
C#CCOc1ccc2c(C)cc(=O)oc2c1,–,"inconclusive: 0.146 µM [activator, partial curve, poor fit]"
Cc1ccc(S(=O)(=O)NCc2ccccc2)cc1C(=O)NCCc1ccc(S(N)(=O)=O)cc1,inconclusive: 17%,–
O=C(O)CCC(=O)c1ccc2c(c1)OCCO2,inconclusive: 57.5%,–
Cc1csc(NC(=O)C2=COCCO2)n1,inconclusive: 54.4%,–
O=C(CSc1ccc(Cl)cc1)N1CCN(c2ncc(C(F)(F)F)cc2Cl)CC1,–,"inconclusive: 23.1 µM [activator, single point]"
CC(=O)OC1COC(N2CCc3cc([N+](=O)[O-])ccc32)C(OC(C)=O)C1OC(C)=O (stereo not given),–,"inconclusive: 29.1 µM [activator, single point]"
CC(C)(C)C(=O)Nc1ccc(C(=O)N/N=C/c2ccccc2OC(=O)c2ccc(Cl)cc2)cc1,inactive,–
CN(C)S(=O)(=O)c1cccc(NC(=S)NC(=O)c2ccco2)c1,–,"inconclusive: 6.51 µM [activator, single point]"
COc1cccc(C(=O)NNC(=O)C(=O)Nc2ccc(OC)cc2OC)c1,inconclusive: -1.97%,–
Cc1ccc(/C=N\NC(=O)c2csnn2)cc1,inconclusive: -39.9%,–
CC(=O)Nc1c(C(=O)Nc2ccc3c(c2)OCO3)oc2ccccc12,–,"inconclusive: 29.1 µM [falling, single point]"
Cc1cc(C(=O)CN2C(=O)NC(CC(C)C)C2=O)c(C)n1-c1ccccc1F (stereo not given),inconclusive: 9.44%,–
O=C(Nc1ccc2c(c1)OCO2)c1ccc(S(=O)(=O)N2CCCC2)cc1,inconclusive: 6.61%,–
CN(C(=O)CN1C(=O)S/C(=C\c2ccc(F)cc2)C1=O)C1CCS(=O)(=O)C1 (stereo not given),inconclusive: 56.9%,–
Cc1ccc(C(=O)N/N=C2\CCCc3ccccc32)c(C)c1,inconclusive: 5.33%,–
O=c1oc2ccccc2cc1-c1nc(-c2cccs2)cs1,–,"inconclusive: 6.51 µM [rising, single point]"
Cc1ccc2c(c1)OC(=O)CC2c1ccccc1 (stereo not given),inconclusive: -7.16%,–
CCOc1ccc(Br)cc1CSC(=N)N,–,"inconclusive: 29.1 µM [falling, single point]"
COc1cc(CNCCN2CCOCC2)ccc1OCc1c(Cl)cccc1Cl,inconclusive: -2.44%,–
CCOC(=O)CNC(=O)/C=C/c1ccc2c(c1)OCO2,inconclusive: 10.8%,–
c1ccc(-c2cnn3nnnc3n2)cc1,inconclusive: -5.46%,–
CCOC(=O)N1CCN(C(=O)c2cccn3c(=O)c4cc(Cl)ccc4nc23)CC1,inconclusive: -4.12%,–
NS(=O)(=O)c1cccc(NC(=O)CC(NC(=O)c2ccccc2Cl)c2ccccc2)c1 (stereo not given),–,"inconclusive: 10.3 µM [falling, partial curve, poor fit]"
COc1ccc(NS(=O)(=O)c2ccc3[nH]c(=O)[nH]c3c2)cc1,inconclusive: 22.3%,–

# Structures shown so far with nitrogen in an aromatic ring:
Structure (SMILES),"lipid storage change, negative = inhibition",Potency
Cc1csc(NC(=O)C2=COCCO2)n1,inconclusive: 54.4%,–
O=C(CSc1ccc(Cl)cc1)N1CCN(c2ncc(C(F)(F)F)cc2Cl)CC1,–,"inconclusive: 23.1 µM [activator, single point]"
Cc1ccc(/C=N\NC(=O)c2csnn2)cc1,inconclusive: -39.9%,–
Cc1cc(C(=O)CN2C(=O)NC(CC(C)C)C2=O)c(C)n1-c1ccccc1F (stereo not given),inconclusive: 9.44%,–
O=c1oc2ccccc2cc1-c1nc(-c2cccs2)cs1,–,"inconclusive: 6.51 µM [rising, single point]"
c1ccc(-c2cnn3nnnc3n2)cc1,inconclusive: -5.46%,–
CCOC(=O)N1CCN(C(=O)c2cccn3c(=O)c4cc(Cl)ccc4nc23)CC1,inconclusive: -4.12%,–
COc1ccc(NS(=O)(=O)c2ccc3[nH]c(=O)[nH]c3c2)cc1,inconclusive: 22.3%,–

# Molecules above that contain bromine (2):
Structure (SMILES),"lipid storage change, negative = inhibition",Potency
CN(c1ccccc1C(=O)Nc1cccc(Br)c1)S(=O)(=O)c1ccccc1,inconclusive: -30.1%,–
CCOc1ccc(Br)cc1CSC(=N)N,–,"inconclusive: 29.1 µM [falling, single point]"

# Next records:

Structure (SMILES),"lipid storage change, negative = inhibition",Potency
N#C/C(=C\c1ccc(-c2ccc([N+](=O)[O-])cc2)o1)C(=O)Nc1nc(-c2cccs2)cs1,inconclusive: -44.2%,–
O=C(CCC(=O)NNC(=O)COc1ccc(Br)cc1Br)NCc1ccccc1,inconclusive: -40.2%,–
CC(C)c1nc(NCCO)c(C#N)c2c1CCCC2,inconclusive: -11%,–
Cc1ccc(S(=O)(=O)CCC(=O)OCC(=O)NC(C)c2ccc(F)cc2)cc1 (stereo not given),inconclusive: -7.54%,–
O=C(COC(=O)CCc1nc2ccccc2s1)Nc1ccc(S(=O)(=O)N2CCOCC2)cc1,inconclusive: -2.71%,–
O=C(OC1CCCCC1)c1cc2ccccc2oc1=O,–,"inconclusive: 23.1 µM [falling, single point]"
Cc1nn(Cc2ccccc2)c2c1C(c1cccnc1)C(C#N)=C(N)O2 (stereo not given),inconclusive: 10.5%,–
CO/N=C/NC(=O)c1c(OC)ccnc1Oc1ccccc1,–,"inconclusive: 16.4 µM [activator, single point]"
N#Cc1ccccc1Sc1ccccc1C(=O)OCC(=O)N1CCN(C(=O)c2ccco2)CC1,inconclusive: 33.5%,–
Cc1cc2nn(-c3cccc4ccccc34)nc2cc1NC(=O)c1cccs1,inconclusive: -8.71%,–
O=C(Nc1ccc2c(c1)OCCO2)C1CCN(S(=O)(=O)Cc2ccccc2)CC1,–,"inconclusive: 29.1 µM [activator, single point]"
O=C1CCCN1CN(C(=O)c1ccccc1)c1ccc(F)cc1,inconclusive: 3.5%,–
CCCSc1ccc([C@@H]2[C@H]3C(=O)N(CC)C(=O)[C@H]3[C@]3(C(=O)OC)CCCN23)cc1,inconclusive: -10.7%,–
Cc1ccc(NC(=O)CSc2nnc(-c3ccccn3)n2N)cc1F,inconclusive: -4.46%,–
Cn1cc(/C=C/C(=O)N2CCCC(C(=O)c3cccc4ccccc34)C2)cn1 (stereo not given),inactive,–
Cn1c(=O)c2c(nc(NCCNC(=O)c3ccco3)n2Cc2ccccc2)n(C)c1=O,–,"inconclusive: 1.16 µM [activator, single point]"
CCc1noc(C)c1C(=O)N(CC)c1nc2c(C)cccc2s1,–,"inconclusive: 13 µM [falling, partial curve, poor fit]"
CCOc1ccccc1CN1CCN(Cc2cn(C)nc2-c2ccccc2)CC1CCO (stereo not given),–,"inconclusive: 5.8 µM [falling, single point]"
O=C(NC1CCCC1)C(c1ccncc1)N(CCCN1CCOCC1)C(=O)c1ccc(-c2ccccc2)[nH]1 (stereo not given),inconclusive: 63.7%,–
CCC(=O)Nc1ccc(-c2csc(NNC(C)=O)n2)cc1,–,"inconclusive: 6.51 µM [falling, single point]"
COc1cc(-c2nnc(SCC(=O)c3ccccc3)o2)cc(OC)c1OC,inconclusive: 9.49%,–
CCN1C(=O)CC(NNC(=O)c2ccccc2)C1=O (stereo not given),inconclusive: 6.72%,–
CC(C)CNC(=O)c1cc(=O)[nH]c2ccc(S(=O)(=O)Nc3ccc(F)cc3)cc12,inconclusive: -73.4%,–
CC(c1nccs1)N(C)C(=O)CCc1nnc(Cc2c[nH]c3ccccc23)o1 (stereo not given),inconclusive: -38.9%,–
COc1ccc(S(=O)(=O)Nc2c(NC3CCCCC3)c3ccccc3oc2=O)cc1Cl,inactive,–

Structure (SMILES),"lipid storage change, negative = inhibition",Potency
COc1cccc(-n2nnc3c(=O)n(CC(=O)N4CCC(Cc5ccccc5)CC4)cnc32)c1,inconclusive: -19.5%,–
N#Cc1ccc(C(=O)Nc2nnc(-c3cccs3)o2)cc1,–,"inconclusive: 18.4 µM [falling, single point]"
CN(C)CCNc1oc(-c2ccccc2Cl)nc1S(=O)(=O)c1ccccc1,–,"inconclusive: 3.66 µM [activator, full curve]"
CCCCn1c(C(C)NC(=O)c2cccs2)nc2ccccc21 (stereo not given),–,"inconclusive: 7.31 µM [rising, partial curve]"
O=C(CN1c2ccccc2Sc2ccccc21)NNC(=O)Nc1ccc(Cl)c(Cl)c1,inconclusive: -34.6%,–
COc1ccc(/C=C(\NC(=O)c2ccccc2)C(=O)N2CCC(C)CC2)cc1,–,"inconclusive: 9.2 µM [falling, single point]"
NC(=O)N/N=C/C=C/c1ccccc1,inactive,–
Nc1nc(SCC(=O)Nc2ccc3c(c2)CCC3)n[nH]1,–,"inconclusive: 0.0231 µM [activator, full curve, poor fit]"
O=C(CCNC(=O)c1ccco1)Nc1ccc(F)c(Cl)c1,inconclusive: 55.3%,–
Cc1ccc(NC(=O)C(OC(=O)c2ccccc2Cl)c2ccccc2)cc1Cl (stereo not given),–,"inconclusive: 0.13 µM [activator, full curve, poor fit]"
COc1cc2c(cc1OC)C(c1ccccc1Cl)N(C)CC2 (stereo not given),–,"inconclusive: 29.1 µM [activator, single point]"
CCN(CC)CCOC(=O)c1ccc(N/C=C(/C#N)c2nc(-c3ccc4c(c3)OCO4)cs2)cc1,inconclusive: -52.4%,–
CCc1ccc(NC(=O)C(=O)NCC2CCCN2S(=O)(=O)c2ccccc2)cc1 (stereo not given),–,"inconclusive: 29.1 µM [falling, single point]"
COc1cc(/C=N/n2cnnc2)ccc1OCCSc1ccc(C)cc1,inconclusive: -5.26%,–
S=c1[nH]cnc2scc(-c3ccc(Br)cc3)c12,inconclusive: -8.48%,–
O=C(NCc1cccnc1)C(=O)N/N=C/c1ccccc1[N+](=O)[O-],inconclusive: 20.8%,–
COc1ccc(CCNC(=O)CSc2nc3[nH]ncc3c(=O)n2-c2ccc(Cl)cc2Cl)cc1OC,–,"inconclusive: 18.4 µM [falling, single point]"
O=C(NC1CCCCC1)C(c1ccc(O)cc1)N(CC1CCCO1)C(=O)C1COc2ccccc2O1 (stereo not given),inconclusive: 302%,–
CCOC(=O)C(NCCOC)(NC(C)=O)C(F)(F)F (stereo not given),–,"inconclusive: 1.46 µM [falling, partial curve, poor fit]"
CC1CCCCN1S(=O)(=O)c1ccc(S(=O)(=O)N(CC(=O)Nc2ccccc2)Cc2cccs2)cc1 (stereo not given),inconclusive: 29.9%,–
O=C(Nc1ccnn1C1CCN(Cc2cccc(OCCO)c2)CC1)C1CC1,–,"inconclusive: 25.9 µM [activator, single point]"
COc1ccc(-n2c(=O)[nH]cc(C(=O)Nc3ccc(NC(C)=O)cc3)c2=O)cc1,–,"inconclusive: 29.1 µM [falling, single point]"
CSc1nc(-c2ccco2)nn1S(C)(=O)=O,inconclusive: -27.3%,–
COC(=O)c1ccccc1Oc1ccc(NC(=O)CCCl)cc1,inactive,–
CCOC(=O)Nc1c(O)ccc2oc(C)c(-c3ccccc3)c12,–,"inconclusive: 3.66 µM [activator, single point]"
